# Results reported in PubChem BioAssay AID1487 (National Center for Advancing Translational Sciences (NCATS), 2009).
# This is one part of the list. The main result of the screen is listed elsewhere. These columns were measured beside it and carry no call. The list favours compounds with an active or inconclusive main result. The note in brackets gives the kind of curve behind each potency; many fits are weak.
# Assay: qHTS Assay for Modulators of Lamin A Splicing
# Settings: HeLa LMNA splicing GFP/RFP minigene ratio, 48 h
# How it was run: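 Read-out is the ratio of GFP to DsRed2 object intensity, acquired by 488 nm laser-scanning cytometry on HeLa lamin A-EGFP minigene reporter cells. Compound incubation 48 hrs at 37 °C in Opti-MEM with 2% FBS; DMSO 0.5% final.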
# [1] = measured here: GFP splicing reporter channel
# [2] = measured here: RFP viability control channel
Compound,AC50 [1],AC50 [2]
CCN1CCN(CCCN(Cc2ccco2)C(=S)Nc2cccc(Cl)c2C)CC1,"15.8 µM [falling, partial curve]",–
CC(/C=N/NC(=O)CN1CCN(Cc2ccc(Cl)cc2)CC1)=C\c1ccco1,"11.2 µM [rising, partial curve, poor fit]","8.91 µM [rising, partial curve]"
CN(c1ccccc1)c1nc(-n2ccnc2)nc(-n2ccnc2)n1,"0.282 µM [falling, full curve]",–
O=C(Nc1cc(Cl)ccc1Oc1ccccc1)c1ccc(F)cc1,–,"14.1 µM [rising, single point]"
COc1cccc(/C=N/N=C(\N)c2nonc2N)c1O,–,"1.41 µM [rising, partial curve]"
CCc1nnc(NC(=O)Cc2cccs2)s1,"5.62 µM [rising, single point]","0.0562 µM [falling, full curve, poor fit]"
COc1ccc(C2C3=C(CC(C)(C)CC3=O)Nc3cc4c(cc32)OCO4)cc1 (centres undefined),–,"31.6 µM [rising, single point]"
Cc1[nH]n(C(N)=S)c(=O)c1N=Nc1cc(-c2ccc(Br)cc2)[nH]n1,–,"11.2 µM [rising, single point]"
COCCNC(=O)c1ccccc1NC(=O)CSc1ccc(C)cc1,"0.0224 µM [falling, full curve, poor fit]","0.0282 µM [falling, full curve]"
COc1ccc2nc(SCC(=O)N3CC(=O)Nc4ccccc43)c(C#N)cc2c1,"1.78 µM [falling, partial curve, poor fit]","5.62 µM [rising, single point]"
COc1ccc(-n2c(-c3ccccc3)cc3c2CCCC3=O)cc1,"35.5 µM [rising, single point]","31.6 µM [rising, single point]"
O=C(NCc1ccncc1)c1ccc(Oc2ccccc2)cc1,"12.6 µM [falling, partial curve]",–
CCCN1CCN(c2ncnc3sc(C(=O)Nc4cccc(Cl)c4C)c(C)c23)CC1,–,"5.01 µM [falling, partial curve, poor fit]"
COc1ccc(NC(=O)C(=O)NCC(c2cccnc2)N2CCc3ccccc3C2)cc1 (centres undefined),"28.2 µM [falling, partial curve, poor fit]",–
O=C(CC1N=C2c3ccccc3N=C(SCc3ccccc3Cl)N2C1=O)NCc1cccs1 (centres undefined),"0.02 µM [falling, full curve, poor fit]","0.0631 µM [falling, partial curve]"
COc1ccccc1-c1c(C(F)(F)F)oc2cc(OC(=O)c3ccccc3[N+](=O)[O-])ccc2c1=O,"2.51 µM [falling, single point]","35.5 µM [falling, single point]"
Cc1nc(NS(=O)(=O)c2ccccc2)sc1C(=O)NN,–,"10 µM [falling, partial curve, poor fit]"
CN1CCN(c2nc(-c3ccc4c(c3)OCO4)nc3ccccc23)CC1,"7.08 µM [falling, partial curve]",–
O=C(Nc1cc(Cl)ccc1Cl)c1cc(S(=O)(=O)N2CCCc3ccccc32)ccc1F,–,"14.1 µM [rising, single point]"

Compound,AC50 [1],AC50 [2]
O=C(NCc1ccccc1)c1cc(S(=O)(=O)N2CCC3(CC2)OCCO3)ccc1F,"15.8 µM [rising, single point]","20 µM [rising, single point]"
CCN=c1scc(-c2ccccc2)n1/N=C/c1ccccn1,–,"7.08 µM [rising, partial curve]"
CCCN(C(=O)c1sc2nc3n(c(=O)c2c1C)CCCC3)c1ccccc1C,–,"20 µM [rising, partial curve, poor fit]"
O=C(CSc1nnc(-c2ccc(Br)cc2)o1)N1CCN(C(=O)c2ccco2)CC1,"12.6 µM [rising, partial curve]","20 µM [rising, single point]"
CCCNC(=O)C1CCC(Cn2c(=O)c3sccc3n(CC(=O)Nc3ccccc3C)c2=O)CC1 (centres undefined),–,"0.501 µM [falling, full curve, poor fit]"
CCOc1ccc2[nH]c(=O)c(CN(Cc3ccco3)C(=O)c3cccc(F)c3)cc2c1,"0.0158 µM [rising, full curve]","14.1 µM [rising, partial curve, poor fit]"
CC(C)c1cc(C(N)=O)c(NC(=O)c2cccc(COc3ccc(Br)cc3)c2)s1,"17.8 µM [rising, single point]","35.5 µM [rising, single point]"
CCOC(=O)c1c(NC(=O)COc2ncnc3ccccc23)sc(C)c1CC,"7.08 µM [rising, partial curve]","17.8 µM [rising, partial curve]"
CCCn1c(NCc2ccco2)nc2c1c(=O)n(C)c(=O)n2C,–,"31.6 µM [rising, single point]"
Cc1oc(-c2cccc(C(F)(F)F)c2)nc1CN1CCOCC1,–,"0.251 µM [falling, partial curve]"
CCc1ccc(Nc2cc(C(=O)NCCCN(C)c3ccccc3)c3ccccc3n2)cc1,"35.5 µM [falling, single point]","35.5 µM [falling, partial curve, poor fit]"
CCOc1ccc(CCNC(=O)c2sc3ncccc3c2-n2c(C)ccc2C)cc1,–,"3.16 µM [rising, partial curve, poor fit]"
Cc1cc(=O)n(CC(=O)Nc2cccc([N+](=O)[O-])c2)c(-n2nc(C)cc2C)n1,–,"0.355 µM [falling, full curve]"
COc1ccc(-c2noc(C3CCCN(S(=O)(=O)c4ccc(C)c(Cl)c4)C3)n2)cc1OC (centres undefined),–,"15.8 µM [rising, partial curve]"
CCc1ccc(C(=O)CSc2n[nH]c(-c3ccncc3)n2)cc1,–,"31.6 µM [rising, single point]"
CN(C)c1cccc(C(=O)N2CCC(c3ccncc3)CC2)c1,–,"35.5 µM [rising, single point]"
COc1cc(CNc2ccc3[nH]c(=O)[nH]c3c2)cc(Br)c1OCc1ccc(F)cc1,"20 µM [falling, partial curve, poor fit]","35.5 µM [falling, single point]"
COc1ccccc1CNC(=O)c1cc2cc(C)ccc2n1C,–,"10 µM [rising, partial curve, poor fit]"
Cc1ccc(S(=O)(=O)NCc2ccc(C(=O)N3CCN(Cc4ccccc4)CC3)cc2)cc1,–,"10 µM [rising, partial curve]"

# Exported with tabs: 3 of the compounds above
Compound	AC50 [1]	AC50 [2]
CCOc1ccc(CCNC(=O)c2sc3ncccc3c2-n2c(C)ccc2C)cc1	–	3.16 µM [rising, partial curve, poor fit]
Cc1cc(=O)n(CC(=O)Nc2cccc([N+](=O)[O-])c2)c(-n2nc(C)cc2C)n1	–	0.355 µM [falling, full curve]
COc1ccc(-c2noc(C3CCCN(S(=O)(=O)c4ccc(C)c(Cl)c4)C3)n2)cc1OC (centres undefined)	–	15.8 µM [rising, partial curve]

# Going on with the list.

Compound,AC50 [1],AC50 [2]
Cc1ccc(Sc2c(C#N)c(-c3ccccc3)nn2C)cc1,–,"31.6 µM [rising, single point]"
O=S(=O)(Nc1cc(C(F)(F)F)ccc1N1CCOCC1)c1ccc2ccccc2c1,"14.1 µM [rising, partial curve]",–
CN(C)c1cccc2c1c(NC(=O)Nc1ccccc1)nn2C,–,"7.08 µM [falling, partial curve, poor fit]"
CN(C)c1ccc(/C=C(\C#N)c2ccccn2)cc1,–,"35.5 µM [rising, single point]"
O=C(CCN1CCCC1Cc1ccccc1)c1ccc2c(c1)OCCO2 (centres undefined),–,"14.1 µM [falling, partial curve, poor fit]"
Cc1ccc(S(=O)(=O)N2CCOCC2)cc1C(=O)Nc1ccc(-c2cn3ccsc3n2)cc1,–,"17.8 µM [rising, partial curve]"
Cc1ccn2c(C(=O)CSc3ccc(Cl)cc3Cl)c(C)nc2c1,"0.631 µM [rising, full curve, poor fit]",–
O=C(c1ccc2ccccc2c1)N1CCN(c2ccc(O)cc2)CC1,"6.31 µM [falling, partial curve]",–
COc1ccc(/C=C/C(=O)c2ccc(NS(=O)(=O)c3ccc(C)cc3)cc2)cc1O,"35.5 µM [falling, single point]","35.5 µM [falling, single point]"
O=C(c1ccc(Cn2c(=O)[nH]c3ccccc3c2=O)cc1)N1CCN(c2ccccc2)CC1,"12.6 µM [rising, partial curve, poor fit]","20 µM [rising, partial curve]"
Cn1c(=O)n(CCc2ccccc2)c(=O)c2c1nc1n2CCCN1CCc1ccccc1,"35.5 µM [falling, single point]","35.5 µM [falling, single point]"
CCS(=O)(=O)N1Cc2ccccc2CC1C(=O)Nc1nc2c(C)cccc2s1 (centres undefined),–,"35.5 µM [rising, single point]"
c1cnn(-c2nc(N3CCOCC3)nc(N3CCOCC3)n2)c1,–,"11.2 µM [rising, partial curve]"
COc1ccc(OC)c(C(=O)CSc2nnc(-c3cccnc3)n2C)c1,"5.01 µM [rising, partial curve, poor fit]",–
COc1cccc(N(C(=O)CS(=O)CC(=O)Nc2ccc(F)cc2)C(C(=O)NC2CCCCC2)c2cccs2)c1 (centres undefined),"0.00316 µM [falling, full curve, poor fit]",–
CN(c1ccccc1)S(=O)(=O)c1ccc(NC(=S)NC(=O)C2CC2)cc1,–,"17.8 µM [rising, partial curve]"
O=C(O)/C=C/C(=O)Nc1ccc(SC(F)(F)C(F)(F)C(F)(F)F)cc1,–,"0.708 µM [rising, full curve]"
COc1cccc(N/C(SCc2cccc([N+](=O)[O-])c2)=C(/C#N)C(=O)NCc2cccs2)c1,"10 µM [rising, partial curve, poor fit]","10 µM [rising, partial curve, poor fit]"
